Assay results reported in publication PMC5173032.
These are yes or no findings as the source states them, for the method shown.

Molecular target: T1, 315L-368Sdel-FXII (human) (UniProt P00748)
T1 sequence: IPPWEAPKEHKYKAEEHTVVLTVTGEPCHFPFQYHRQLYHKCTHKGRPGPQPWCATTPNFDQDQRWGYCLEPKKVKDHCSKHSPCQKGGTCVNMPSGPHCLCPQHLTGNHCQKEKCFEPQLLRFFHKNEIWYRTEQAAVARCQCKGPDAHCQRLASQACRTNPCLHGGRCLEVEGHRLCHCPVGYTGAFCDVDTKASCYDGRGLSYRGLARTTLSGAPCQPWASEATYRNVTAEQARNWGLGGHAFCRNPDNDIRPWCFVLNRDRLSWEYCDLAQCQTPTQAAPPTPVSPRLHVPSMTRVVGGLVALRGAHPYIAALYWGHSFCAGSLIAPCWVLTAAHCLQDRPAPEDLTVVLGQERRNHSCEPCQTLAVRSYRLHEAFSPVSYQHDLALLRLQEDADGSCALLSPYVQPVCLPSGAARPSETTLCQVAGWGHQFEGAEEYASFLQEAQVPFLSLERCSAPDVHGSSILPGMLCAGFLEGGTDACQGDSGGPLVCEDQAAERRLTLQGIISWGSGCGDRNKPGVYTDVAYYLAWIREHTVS
Assay: co-IP; purified proteins: hPEPD, an hPEPD mutant or mSRC at 40 nM incubated with a coagulation factor, FXII or an FXII mutant at 0.5 μM in PBS, 100 μl, 2 h at 37°C; then a specific primary antibody at 4°C overnight, IP by protein G-agarose, IB; both purified

B1: recombinant human prolidase (peptidase D, PEPD) (enzyme, UniProt P12955 1-493)
chain: MAAATGPSFWLGNETLKVPLALFALNRQRLCERLRKNPAVQAGSIVVLQGGEETQRYCTDTGVLFRQESFFHWAFGVTEPGCYGVIDVDTGKSTLFVPRLPASHATWMGKIHSKEHFKEKYAVDDVQYVDEIASVLTSQKPSVLLTLRGVNTDSGSVCREASFDGISKFEVNNTILHPEIVECRVFKTDMELEVLRYTNKISSEAHREVMKAVKVGMKEYELESLFEHYCYSRGGMRHSSYTCICGSGENSAVLHYGHAGAPNDRTIQNGDMCLFDMGGEYYCFASDITCSFPANGKFTADQKAVYEAVLRSSRAVMGAMKPGVWWPDMHRLADRIHLEELAHMGILSGSVDAMVQAHLGAVFMPHGLGHFLGIDVHDVGGYPEGVERIDEPGLRSLRTARHLQPGMVLTVEPGIYFIDHLLDEALADPARASFLNREVLQRFRGFGGVRIEEDVVVTDSGIELLTCVPRTVEEIEACMAGCDKAFTPFSGPK
Question: With B1 as the binder, how does the binding read?
Answer: Its binding is “no binding (tested: hPEPD 40 nM, FXII mutant 0.5 μM)”.
